From PubChem BioAssay AID1487 (National Center for Advancing Translational Sciences (NCATS), 2009)
The other results are listed elsewhere or left out. Further columns of the screen follow, without active or inactive calls. Most of these compounds were active or inconclusive in the main read-out, so they are no random draw. The note in brackets gives the kind of curve behind each potency; many fits are weak.

Experiment: qHTS Assay for Modulators of Lamin A Splicing
Conditions: HeLa LMNA splicing GFP/RFP minigene ratio, 48 h
Method in brief: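 Read-out is the ratio of GFP to DsRed2 object intensity, acquired by 488 nm laser-scanning cytometry on HeLa lamin A-EGFP minigene reporter cells. Compound incubation 48 hrs at 37 °C in Opti-MEM with 2% FBS; DMSO 0.5% final.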

[1] = measured here: GFP splicing reporter channel
[2] = measured here: RFP viability control channel

C/C(=N\Nc1ccccc1)c1c(O)cc(C)oc1=O
AC50 [1]: 3.98 µM [rising, full curve, poor fit]

Cc1c(Cc2ccccc2)sc(/N=C/c2ccc3ccccc3c2)c1C(N)=O
AC50 [2]: 3.98 µM [rising, full curve]

CC1=CC2=NC(=O)/C(=C\c3cccn3CCOc3ccccc3)C(=N)N2O1
AC50 [2]: 12.6 µM [rising, partial curve]

COc1cc(/C=C/c2ccc3cccc(OC)c3n2)c(OC(C)=O)c([N+](=O)[O-])c1
AC50 [2]: 3.98 µM [rising, single point]

O=[N+]([O-])c1ccc(Nc2ccccc2)nc1
AC50 [2]: 35.5 µM [rising, single point]

COc1ccc2[nH]c3c(NCCN4CCCCC4)ncnc3c2c1
AC50 [1]: 7.94 µM [rising, partial curve, poor fit]
AC50 [2]: 10 µM [rising, partial curve]

CCOc1ccccc1NC(=S)NC(=O)CCCOc1ccc(Cl)cc1Cl
AC50 [1]: 35.5 µM [rising, single point]
AC50 [2]: 14.1 µM [rising, single point]

O=C(CSc1nc(O)c(C2CCCCC2)c(=O)[nH]1)Nc1ccc(Cl)cc1
AC50 [1]: 17.8 µM [rising, partial curve]

Cc1ccc(NC(=S)N(CCN2CCOCC2)Cc2cc3cc4c(cc3[nH]c2=O)OCO4)cc1
AC50 [1]: 0.0224 µM [rising, full curve, poor fit]

CC(C)(C)n1nc2c(c1NC(=O)COc1ccc(Cl)cc1)CSC2
AC50 [1]: 25.1 µM [rising, single point]
AC50 [2]: 31.6 µM [rising, single point]

c1ccc(N2CCOCC2)c(Nc2nc3ccccc3n3cnnc23)c1
AC50 [1]: 17.8 µM [rising, single point]

CC1(C)C(C=C(Cl)Cl)C1C(=O)Nc1ccc([N+](=O)[O-])cc1 (configuration not stated)
AC50 [2]: 35.5 µM [rising, single point]

N#C/C(=N\Nc1c(Cl)cccc1Cl)C(=O)NN
AC50 [1]: 17.8 µM [falling, single point]
AC50 [2]: 14.1 µM [falling, partial curve, poor fit]

CSc1nc(-c2ccco2)nn1C(=O)c1ccccc1
AC50 [2]: 0.00794 µM [falling, full curve, poor fit]

C=CCNC1=C(Cl)C(=O)c2ccccc2C1=O
AC50 [2]: 22.4 µM [rising, single point]

O=C(Nc1ccccc1)OC1CCC2CC1CCC2OC(=O)Nc1ccccc1 (configuration not stated)
AC50 [1]: 8.91 µM [rising, partial curve]
AC50 [2]: 14.1 µM [rising, partial curve]

O=C(Oc1ccc(F)cc1C(=O)/C=C/c1cccs1)c1cccc([N+](=O)[O-])c1
AC50 [1]: 35.5 µM [rising, single point]

COc1ccc(/C=C2/SC(c3ccc(C)cc3)=NC2=O)cc1OC
AC50 [2]: 35.5 µM [rising, single point]

CN1C(=O)c2ccccc2Sc2ccc(NC(=O)Cc3ccc(Cl)cc3)cc21
AC50 [1]: 2.82 µM [falling, partial curve, poor fit]

CC(C)n1cc(/C=N/NC(=O)COc2cccc3cccnc23)c2ccccc21
AC50 [2]: 7.94 µM [rising, partial curve, poor fit]

Cc1c(C(=O)OCc2ccccc2)[nH]c2c1C(=O)CC(c1ccco1)C2 (configuration not stated)
AC50 [2]: 0.398 µM [rising, full curve]

O=C(CNC(=O)C12CC3CC(CC(C3)C1)C2)N1CCN(S(=O)(=O)c2cccs2)CC1
AC50 [2]: 20 µM [rising, partial curve, poor fit]

Cc1cc(C)n(-c2ncnc3ccccc23)n1
AC50 [2]: 0.2 µM [falling, full curve]

N=c1ccn2c(n1)O[C@H]1[C@@H](O)[C@@H](CO)O[C@H]12
AC50 [1]: 0.447 µM [falling, full curve]
AC50 [2]: 0.0631 µM [rising, full curve, poor fit]

CCOC(=O)c1cccc(NC(=O)C2COc3ccc(OC)cc3C2)c1 (configuration not stated)
AC50 [1]: 7.94 µM [falling, partial curve, poor fit]

CC1=CC(C)(C)Nc2ccc(OC(=O)C(C)N3C(=O)c4ccccc4C3=O)cc21 (configuration not stated)
AC50 [1]: 35.5 µM [falling, single point]
AC50 [2]: 2.51 µM [falling, partial curve]

CCOc1ccc(NC(=S)NN(C)C(=S)Nc2ccc(OCC)cc2)cc1
AC50 [2]: 12.6 µM [rising, single point]

COc1ccc(-n2ncc3c(NC(C)C)ncnc32)cc1
AC50 [2]: 17.8 µM [rising, single point]

O=[N+]([O-])c1ccc(NC2CCCC2)cc1
AC50 [1]: 0.00501 µM [rising, full curve, poor fit]
AC50 [2]: 35.5 µM [rising, single point]

CCOP(=O)(OCC)C(NC(=O)Nc1ccc(Cl)c(Cl)c1)c1ccccc1 (configuration not stated)
AC50 [1]: 0.891 µM [falling, full curve, poor fit]

C/C(=N\NC(=O)c1ccc(C)cc1C)c1ccc(-n2ccnc2)cc1
AC50 [2]: 2 µM [falling, full curve, poor fit]

CCC1CN(C(=O)NCc2ccc(F)cc2)c2cc(C)ccc2O1 (configuration not stated)
AC50 [2]: 12.6 µM [rising, partial curve]

Cc1ccccc1N1CCN(C(=S)c2ccc(-c3cccc([N+](=O)[O-])c3)o2)CC1
AC50 [1]: 1.41 µM [rising, partial curve]
AC50 [2]: 1 µM [rising, full curve]

Cc1cc(C(=O)N/N=C/c2cc(Br)cc(Br)c2OC(=O)c2ccccc2)n[nH]1
AC50 [1]: 35.5 µM [falling, single point]
AC50 [2]: 5.01 µM [rising, single point]

CCN(CC)C(=O)c1c([N+](=O)[O-])c(C(C)(C)C)nn1C
AC50 [1]: 0.01 µM [rising, full curve, poor fit]

CCCCNC(=O)CNC(=O)c1cccs1
AC50 [1]: 0.501 µM [falling, single point]

Oc1c(Br)cc(Br)cc1C=NCc1ccc(F)cc1
AC50 [1]: 35.5 µM [falling, single point]

COc1ccccc1CNc1cc(-c2ccccc2Cl)ncn1
AC50 [1]: 11.2 µM [falling, partial curve]

CCOC(=O)CC(=O)CSc1nc2c(sc(=S)n2-c2ccccc2)c(=O)[nH]1
AC50 [2]: 0.708 µM [falling, partial curve, poor fit]

O=C1ON=C(c2ccc(Cl)cc2)/C1=C/c1ccc(O)cc1
AC50 [1]: 35.5 µM [falling, single point]
AC50 [2]: 35.5 µM [falling, single point]

CC(C)C1=CC2=CC[C@@H]3[C@](C)(CCC[C@@]3(C)C(=O)O)[C@H]2CC1
AC50 [1]: 0.0355 µM [rising, full curve, poor fit]
AC50 [2]: 2 µM [rising, partial curve, poor fit]

CCc1ccc(-n2nc(C)c3c(C)cc(=O)n(CC(=O)Nc4cc(Cl)ccc4OC)c32)cc1
AC50 [1]: 2.82 µM [falling, partial curve, poor fit]
AC50 [2]: 2.51 µM [falling, partial curve, poor fit]

O=C(Nc1ccc(Cl)cn1)C1CCCN1S(=O)(=O)c1ccc(Cl)cc1 (configuration not stated)
AC50 [2]: 17.8 µM [rising, single point]

CCN(CC)c1ccc(NC(=S)NC(=O)c2ccco2)cc1
AC50 [1]: 0.0251 µM [falling, full curve, poor fit]
AC50 [2]: 0.0224 µM [falling, full curve]

Cn1c(=O)c2c(nc(N3CCCCCC3)n2Cc2cccc3ccccc23)n(C)c1=O
AC50 [1]: 12.6 µM [rising, partial curve]
AC50 [2]: 17.8 µM [rising, partial curve]

COC(=O)c1c(NC(=O)/C=C/C(=O)O)sc(C)c1-c1ccc(C(C)C)cc1
AC50 [2]: 35.5 µM [falling, single point]

CC(=O)Nc1cccc(NC(=O)CSc2nnnn2Cc2ccccc2)c1
AC50 [1]: 15.8 µM [rising, partial curve, poor fit]
AC50 [2]: 14.1 µM [rising, partial curve]

O=C(NCCSCc1ccccc1)c1ccccc1
AC50 [1]: 8.91 µM [rising, partial curve]
AC50 [2]: 22.4 µM [rising, single point]

Cc1cc(C)c(C(=O)Cn2nc(C)c([N+](=O)[O-])c2C)cc1C
AC50 [2]: 31.6 µM [rising, partial curve, poor fit]

COc1cc(CNc2ccccc2SC)cc(OC)c1OC
AC50 [1]: 14.1 µM [rising, single point]
AC50 [2]: 17.8 µM [rising, single point]

O=C(CN1CCc2ccccc21)NC(c1ccccc1)c1ccccc1
AC50 [1]: 11.2 µM [falling, partial curve, poor fit]

COc1ccc(OC)c(CN2CCC(CO)(CCOc3ccccc3)CC2)c1
AC50 [1]: 5.62 µM [rising, single point]

CCN1CCc2c(sc(-n3cccc3)c2C(C)NC(=O)Nc2ccc(C(=O)OC)cc2)C1 (configuration not stated)
AC50 [1]: 35.5 µM [rising, single point]
AC50 [2]: 17.8 µM [rising, single point]

Oc1ccc(N2CCN(c3nnnn3-c3ccccc3)CC2)cc1
AC50 [1]: 6.31 µM [falling, partial curve, poor fit]

O=C(Nc1cccc(F)c1)c1cnc2sc(N3CCCC3)nn2c1=O
AC50 [1]: 5.62 µM [falling, partial curve, poor fit]
AC50 [2]: 0.398 µM [falling, full curve, poor fit]

COC(=O)c1c(C)oc2ccc(N(C(=O)c3ccncc3)S(=O)(=O)c3ccc(Br)cc3)cc12
AC50 [1]: 35.5 µM [falling, single point]
AC50 [2]: 17.8 µM [falling, single point]
